Measurements reported in PMC7847308, “Nanoscopic anatomy of dynamic multi-protein complexes at membranes resolved by graphene-induced energy transfer” (eLife, 2021).
These are yes or no findings as the source states them, for the method shown. Some results given as binding are weak or reduced against the parent protein; the word gives no strength. For part of these data: Where a sequence is shown, tags or fusion partners need not be part of it.

Amino acid sequences for entries named in this document (tags omitted).
UniProt P32939: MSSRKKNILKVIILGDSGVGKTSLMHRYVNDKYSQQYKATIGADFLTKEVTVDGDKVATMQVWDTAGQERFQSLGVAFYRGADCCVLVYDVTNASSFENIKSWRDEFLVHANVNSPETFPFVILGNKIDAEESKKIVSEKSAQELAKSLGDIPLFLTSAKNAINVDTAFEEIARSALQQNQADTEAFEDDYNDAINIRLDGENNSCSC

T1: Vps41-TAP (S. cerevisiae), P38959
T1 chain: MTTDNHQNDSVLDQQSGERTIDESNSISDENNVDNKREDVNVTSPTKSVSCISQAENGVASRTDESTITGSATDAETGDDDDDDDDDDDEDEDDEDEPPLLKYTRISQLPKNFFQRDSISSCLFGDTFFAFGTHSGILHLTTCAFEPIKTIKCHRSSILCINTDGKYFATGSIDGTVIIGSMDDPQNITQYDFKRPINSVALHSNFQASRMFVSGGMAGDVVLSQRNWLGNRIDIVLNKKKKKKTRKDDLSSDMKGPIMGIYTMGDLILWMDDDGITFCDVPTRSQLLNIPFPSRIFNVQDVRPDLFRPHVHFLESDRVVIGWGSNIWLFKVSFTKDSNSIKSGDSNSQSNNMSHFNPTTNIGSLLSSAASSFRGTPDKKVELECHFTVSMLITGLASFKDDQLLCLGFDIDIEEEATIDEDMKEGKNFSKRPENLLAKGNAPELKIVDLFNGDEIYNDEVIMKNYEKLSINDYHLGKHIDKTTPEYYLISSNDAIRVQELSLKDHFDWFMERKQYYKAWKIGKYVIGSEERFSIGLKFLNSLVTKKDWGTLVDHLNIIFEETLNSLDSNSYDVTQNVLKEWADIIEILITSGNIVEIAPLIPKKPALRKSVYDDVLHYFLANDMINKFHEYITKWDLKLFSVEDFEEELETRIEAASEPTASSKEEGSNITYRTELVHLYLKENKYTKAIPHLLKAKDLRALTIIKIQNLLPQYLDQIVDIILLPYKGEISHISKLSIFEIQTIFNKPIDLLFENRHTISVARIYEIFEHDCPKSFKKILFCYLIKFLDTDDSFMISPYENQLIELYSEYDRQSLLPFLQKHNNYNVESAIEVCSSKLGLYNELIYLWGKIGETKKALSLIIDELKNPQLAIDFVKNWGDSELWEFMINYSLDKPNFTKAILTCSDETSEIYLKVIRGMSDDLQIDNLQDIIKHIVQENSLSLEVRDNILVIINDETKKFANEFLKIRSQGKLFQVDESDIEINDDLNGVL


Key:
[1] = molecular target: prenylated mNeonGreen-Ypt7 (S. cerevisiae) (UniProt P32939); assay: SEC; 10 uM GDP-loaded Rab prenylated with 9 uM GDI, 1 uM Mrs6, 1 uM Bet2-Bet4 and geranylgeranyl pyrophosphate, 1 h 37 C; His-tagged enzymes removed on Ni-NTA; Rab:GDI complex isolated by size exclusion chromatography, SDS-PAGE; both purified
[2] = molecular target: prenylated Ypt7 (S. cerevisiae) (UniProt P32939); assay: as above
[3] = molecular target: T1, Vps41-TAP (S. cerevisiae), P38959; assay: tandem affinity purification with SDS-PAGE and Coomassie staining; yeast lysate on IgG Sepharose by the TAP-tagged subunit, 2 h 4 C, washed, eluted by TEV cleavage; 300 mM NaCl (HOPS) or 150 mM NaCl (Mon1-Ccz1); conditions: remark: other sources report otherwise

Row | Binder | binding [1] | binding [2] | binding [3]
1 | Gdi1 (protein, UniProt P39958 1-451) MDQETIDTDYDVIVLGTGITECILSGLLSVDGKKVLHIDKQDHYGGEAASVTLSQLYEKFKQNPISKEERESKFGKDRDWNVDLIPKFLMANGELTNILIHTDVTRYVDFKQVSGSYVFKQGKIYKVPANEIEAISSPLMGIFEKRRMKKFLEWISSYKEDDLSTHQGLDLDKNTMDEVYYKFGLGNSTKEFIGHAMALWTNDDYLQQPARPSFERILLYCQSVARYGKSPYLYPMYGLGELPQGFARLSAIYGGTYMLDTPIDEVLYKKDTGKFEGVKTKLGTFKAPLVIADPTYFPEKCKSTGQRVIRAICILNHPVPNTSNADSLQIIIPQSQLGRKSDIYVAIVSDAHNVCSKGHYLAIISTIIETDKPHIELEPAFKLLGPIEEKFMGIAELFEPREDGSKDNIYLSRSYDASSHFESMTDDVKDIYFRVTGHPLVLKQRQEQEKQ | binds | binds | –
2 | Vps39-yEGFP, Q07468 1-1049 (protein) MLRAQKLHSLKSSDITAILPTEQSQKLVLAKKNGDVEVYSRDGNTLKLFQVYPDLLQNAKNDPLPPVIENFYFANELSTIFAQCKETLILLSTTNLHEYDRIIDRRGINHCWLFERSHKNKEEKNTYLIYSTINTAKMRVLIWEGRTYKNMMEASLSYRKETIRSIYPGETGITLATDLGIYHWPYNKPSLIRIEKTVKNKFPKDMISALTELKEQAEKVIEKKPKKNSHFDAQSFSSMDRMSRKSSMSSLWYRTIRNERGNKIRYTFELDGNDATPMIIDGATKKIFKVELMHNNEEPFLIATDHATFSESNSEFDHMQYLSSNLLMLYNSSTIKFVDYENGFTFLQQKIPEGIKWVKNLSGTYFLVWTSNDEVQLFSYHVDDGSEDDDQESICGDINDPDFYQLWRKVLFYKFFIDSPHSKELCVSDNPEESLDICAMKLRDLTVMWCLRIFDKFQNYMVQLERSRNSRMIRSKCEEMIIKSIFDLFIKFWAPPQLVILKVFPSAISSLVLEITGQEHHCLLKEAEEVKETYDIPPHLLNRWCLPYLTDTRRHLQNLLSKENDDESRITWCYRDREIKQSFDFFLISNHDDVDLNTMLTLIDTVLFKCYLYYNPPMVGPFIRVENHCDSHVIVTELKIRHMFKDLIDFYYKRGNHEEALKFLTDLVDELENDNTDQKQRQKIDHGVKILVIYYLKKLSNPQLDVIFTYTDWLLNRHNDSIKEILSSIFFYDSQACSSRDHLKVYGYIKKFDKLLAIQYLEFAISTFRLEGNKLHTVLIKLYLENLDIPSTRIKLKSLLETTSVYEPRTILKLLNDAIESGSDQLPTNQLNFVKYLKIFPLSKLENHKEAVHILLDEIDDYKAATSYCNDVYQSDSTKGEELLLYLYSKLVSIYDSNRNSKLILNFLQDHGSKLNSAEIYKNLPQDISLYDIGRVVSQLLKKHTSKMDETRLEKALLQVELVATTYKLNERMSSYGVLSDSHKCPICKKVISNFGTDSISWFTREGRNIITHYNCGKVLQERFNAKNEKSSRIKQKTLGEVINELNNK | – | – | binds
